## Assay results

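A z-score from a phospho-tyrosine peptide counterscreen run alongside a FRET kinase assay of purified Hck-YEEI bound to Nef, read after timed room-temperature incubations. Compounds were tested at a single concentration of 10 µM. The number is a z-score for the p-Tyr peptide counterscreen; higher values mean a stronger counterscreen signal, and values above 3 mark a compound as likely interfering.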

Common to all entries: measured here: p-Tyr peptide counterscreen. Part of the compounds only, not a random draw; the main read-out is not listed here.

With O=C(Nc1nccs1)c1cccc(N2C(=O)c3cccc4c([N+](=O)[O-])ccc(c34)C2=O)c1 the assay gave z-score 1.553. N=C1S/C(=C\c2ccc(-c3ccccc3C(=O)O)o2)C(=O)N1c1ccc2c(c1)OCO2 gave z-score -1.992. With O=C1NC(=O)C(=Cc2coc3ccccc3c2=O)C(=O)N1 the assay gave z-score -1.464. For CC(C)(C)n1nc(-c2ccc(Cl)cc2)c2c(N)ncnc21 the result was z-score -0.6743. With NC(=S)N/N=C/c1coc2ccc(Cl)cc2c1=O the assay gave z-score -2.033. With CCCCc1cc(=O)oc2c(CN3CCCC3)c(O)ccc12 the assay gave z-score 51.11. COc1ccc(NC(=O)CSc2c(C)nn(-c3nnc(C)c(=O)[nH]3)c2C)cc1 gave z-score 2.763.

With CCOC(=O)c1cc(-c2ccccc2)sc1NC(=O)COC(=O)c1cccc(S(N)(=O)=O)c1 the assay gave z-score -1.854. For Nc1cc2ccncc2c2ccccc12 the result was z-score 3.829. Cn1nc(Oc2ncc(C(F)(F)F)cc2Cl)cc1C(F)(F)F read z-score -0.9733. Result for COc1cc(/C=C(\C#N)C(=O)NC2CCCCC2)ccc1OCc1ccc(C(=O)O)cc1 was z-score 0.4189. With CC1=CC(=O)c2c(O)ccc(O)c2C1=O the assay gave z-score -1.867. For Cc1ccc(NC(=O)CN2C(=O)S/C(=C/c3ccc(O)c([N+](=O)[O-])c3)C2=O)cc1C the result was z-score -0.222. Result for CCCCCCc1cc2cc(C(=O)Nc3ccccc3)c(=O)oc2cc1O was z-score 1.691.

For COCC(C)OC(=O)/C(C#N)=C\c1coc2ccc(C)cc2c1=O (stereo unspecified) the result was z-score 2.057. With COc1ccc(OC)c(/C=N/NC(=O)CC(=O)NCc2ccccc2)c1 the assay gave z-score 12.43. For COc1ccc(-c2csc(NC(=O)CSc3nc(C)nc4sc(C(=O)O)c(C)c34)n2)cc1 the result was z-score 0.3537. With Oc1c(/C=C/C=C/C=Nc2ccccc2)sc(=S)n1Cc1ccccc1 the assay gave z-score -1.868. O=C1/C(=C/C=C/c2ccco2)SC(=S)N1NS(=O)(=O)c1ccccc1 read z-score -1.569. For CCCNC(=O)COC(=O)c1cc2c(=O)n3ccccc3nc2s1 the result was z-score 35.86. CCOC(=O)C1=NOC(C(=O)NN(C)c2ncc(C(F)(F)F)cc2Cl)C1 (stereo unspecified) read z-score -0.3583.

For CCC(C)N1CC(O)=C(c2nc3ccccc3[nH]2)C1=N (stereo unspecified) the result was z-score 1.62. With Cc1ccc(-n2cccc2/C=C2\C(=N)N3N=C(c4ccco4)SC3=NC2=O)cc1 the assay gave z-score -2.866. For CC1=NOC(=O)/C1=C\c1ccc(-c2ccccc2Br)o1 the result was z-score 0.4817. For CCOC(=O)c1cc2c(=O)n3ccccc3nc2n(CC(C)C)c1=NC(=O)c1ccco1 the result was z-score 41.99. For COc1cc2ncnc(NCc3ccc(C)o3)c2cc1OC the result was z-score -1.478. For CC(C)C[C@H](CO)Nc1nc(Nc2cccc(Cl)c2)c2ncn(C(C)C)c2n1 the result was z-score -0.01952. For COc1cccc(N2CC(C(=O)Nc3nnc(SCC(=O)Nc4cc(C)on4)s3)CC2=O)c1 (stereo unspecified) the result was z-score 0.171.

Result for O=c1cc(C(F)(F)F)[nH]c2ccccc12 was z-score -1.005. For COc1ccc2[nH]c(O)c(N=NC(=O)Cc3cccs3)c2c1 the result was z-score 1.347. For CC1=C(C#N)c2nc(N)c(C#N)c(C)c2/C1=C\c1ccc(-c2ccccc2C(=O)O)o1 the result was z-score -1.955. With CNc1ccc(Br)cc(C(=O)/C=C/c2cccc(Cl)c2Cl)c1=O the assay gave z-score -1.145. COCCNC(=O)/C(C#N)=C1\N=C(N)c2ccccc21 read z-score 3.428. For NC(=O)CC(NC(=O)Cc1ccc(Br)cc1)c1ccc(NCCc2ccc(F)cc2)c([N+](=O)[O-])c1 (stereo unspecified) the result was z-score 0.9909. For O=c1c(-c2c(O)cc(O)c3c(=O)cc(-c4ccc(O)cc4)oc23)c(-c2ccc(O)cc2)oc2cc(O)cc(O)c12 the result was z-score -1.821.

Some entries from above, unchanged:

| Compound | z-score |
|---|---|
| `Nc1cc2ccncc2c2ccccc12` | 3.829 |
| `O=c1cc(C(F)(F)F)[nH]c2ccccc12` | -1.005 |
| `COc1ccc2[nH]c(O)c(N=NC(=O)Cc3cccs3)c2c1` | 1.347 |
| `COc1ccc(NC(=O)CSc2c(C)nn(-c3nnc(C)c(=O)[nH]3)c2C)cc1` | 2.763 |

Data taken from PubChem BioAssay AID463188, deposited by University of Pittsburgh Molecular Library Screening Center (2010).